Measured values published in PMC5459575.
Where a chain is given by its changes, count along the chain named. Names and notes keep the numbering of the source. No constants are given. Whether binding was seen depends on the method and setting. Some binding calls cover weakened binding; strength is not graded here. One block for each binder: values may come before it.

Amino acid sequences for entries named in this document (tags omitted). Residues count along the entry.
UniProt Q96D31: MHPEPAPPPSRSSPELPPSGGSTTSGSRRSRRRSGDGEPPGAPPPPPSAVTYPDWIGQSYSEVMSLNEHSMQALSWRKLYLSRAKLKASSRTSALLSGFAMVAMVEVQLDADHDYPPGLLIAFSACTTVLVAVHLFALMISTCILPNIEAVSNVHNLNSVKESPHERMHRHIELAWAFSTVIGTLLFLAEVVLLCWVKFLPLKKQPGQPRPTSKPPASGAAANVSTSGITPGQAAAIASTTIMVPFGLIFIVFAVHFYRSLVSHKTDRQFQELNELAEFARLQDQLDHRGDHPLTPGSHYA
UniProt Q13586, residues 23-685: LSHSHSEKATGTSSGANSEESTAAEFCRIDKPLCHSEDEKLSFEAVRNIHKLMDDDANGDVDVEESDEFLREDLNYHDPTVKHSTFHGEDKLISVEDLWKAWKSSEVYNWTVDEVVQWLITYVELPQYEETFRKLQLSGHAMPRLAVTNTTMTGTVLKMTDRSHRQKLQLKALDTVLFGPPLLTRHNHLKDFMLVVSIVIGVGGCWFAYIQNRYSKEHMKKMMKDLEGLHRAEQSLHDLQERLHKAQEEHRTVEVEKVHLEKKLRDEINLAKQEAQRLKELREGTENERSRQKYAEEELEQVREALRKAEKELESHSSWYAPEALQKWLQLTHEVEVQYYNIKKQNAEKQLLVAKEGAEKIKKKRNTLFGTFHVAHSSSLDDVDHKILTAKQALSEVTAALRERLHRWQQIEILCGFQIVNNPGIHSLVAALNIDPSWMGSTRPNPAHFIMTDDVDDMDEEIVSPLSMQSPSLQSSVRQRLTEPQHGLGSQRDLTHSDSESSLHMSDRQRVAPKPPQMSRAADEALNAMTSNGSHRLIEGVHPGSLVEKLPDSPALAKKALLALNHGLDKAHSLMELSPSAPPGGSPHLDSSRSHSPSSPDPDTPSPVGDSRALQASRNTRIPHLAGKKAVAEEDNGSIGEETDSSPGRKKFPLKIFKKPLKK

What was measured:
myc-tagged Orai1 = myc-tagged Orai1 (UniProt Q96D31); assay: pull-down; myc-tagged Orai1 and Stim1 immunoprecipitated from HEK293 cells, beads incubated with purified recombinant α-SNAP WT or M105I for 1 hr at 4°C, washed three times, eluted in SDS sample buffer, western blot; both purified
myc-tagged Stim1 = myc-tagged Stim1 (UniProt Q13586); assay: as above

binding (myc-tagged Orai1): binds | binding (myc-tagged Stim1): binds
B1: α-SNAP M105I, purified recombinant (protein, UniProt Q9DB05 1-295)
chain: MDNSGKQAEAMALLAEAERKVKNSQSFFSGLFGGSSKIEEACEIYARAANMFKMAKNWSAAGNAFCQAAQLHLQLQSKHDAATCFVDAGNAFKKADPQEAINCLIRAIEIYTDMGRFTIAAKHHISIAEIYETELVDVEKAIAHYEQSADYYKGEESNSSANKCLLKVAGYAAQLEQYQKAIDIYEQVGTSAMDSPLLKYSAKDYFFKAALCHFCIDMLNAKLAVQKYEELFPAFSDSRECKLMKKLLEAHEEQNVDSYTEAVKEYDSISRLDQWLTTMLLRIKKTIQGDEEDLR

binding (myc-tagged Orai1): binds | binding (myc-tagged Stim1): binds
B2: α-soluble NSF-attachment protein (α-SNAP), wild type, purified recombinant (protein, UniProt Q9DB05 1-295)
chain: B1 chain with I105M
